According to US9751862B2, “Pesticidally active substituted pyridyl carboxamides” (Syngenta Participations AG, priority 2014, dated 2017):
Some entries share one result that the patent states for a list of compounds.

These molecules were tested on Rhopalosiphum padi (Bird Cherry Oat Aphid) (assay: Activity against Rhopalosiphum padi on barley (seed treatment), mixed population, systemic/feeding activity, preventive). Settings: 0.3 mg a.i./seed, infested two weeks after sowing, seven days incubation.
Assay type: in vivo

| Structure (SMILES) | efficacy in the reduction of aphids compared to the untreated control plants |
| --- | --- |
| Cc1cc(C2(C#N)CC2)cnc1-n1ncc(C(=O)N(C)c2cccnc2)c1C [Compound 1.002, 1-[5-(1-cyanocyclopropyl)-3-methyl-2-pyridyl]-N,5-dimethyl-N-(3-pyridyl)pyrazole-4-carboxamide] | over 70% |
| Cc1cc(CC#N)cnc1-n1ncc(C(=O)N(C)c2cccnc2)c1C [Compound 1.001, 1-[5-(cyanomethyl)-3-methyl-2-pyridyl]-N,5-dimethyl-N-(3-pyridyl)pyrazole-4-carboxamide] | over 70% |
| Cc1cc(C(C)(C)C#N)cnc1-n1ncc(C(=O)N(C)c2cccnc2)c1C [Compound 1.004, 1-[5-(1-cyano-1-methyl-ethyl)-3-methyl-2-pyridyl]-N,5-dimethyl-N-(3-pyridyl)pyrazole-4-carboxamide] | over 70% |
